Patent US6399570B1, “Antimicrobial/endotoxin neutralizing polypeptide” (priority 1999, dated 2002)
pIC50: −log10 of the molar value. At least one peptide structure holds a part that was inferred or is arguable (an end, a ring closure or a residue). Marks after values point to notes of the source that are not given here. Where a SMILES comes first, the peptide text is derived from it.

How the values were obtained:
[1] = tested on: E. coli 0111; assay: Time course of E. coli growth in the presence of LF polypeptides; format: cell-based; conditions: 50 μM, seven hour time course, OD 600 nm
Description: To investigate whether regions of the molecule involved in GAG binding activity of the 6 kDa LF polypeptide (generated from pepsin digestion) are also involved in the antimicrobial activity of the 6 kDa polypeptide of the present invention, polypeptides of various lengths corresponding to the N-terminal amino acid sequence of LF were tested for the ability to inhibit the growth of E. coli 0111. Overnight cultures were grown over a seven hour time course in the presence of 50 μM of either LF, a 33-mer corresponding to amino acids 1-33 of LF, a 26-mer corresponding to […] of LF, a 27-mer corresponding to amino acids 1-27 of LF. […] This is consistent with LF and the 33-mer inhibiting bacterial growth via different mechanisms. […] The failure of the 26-mer and the 27-mer to inhibit culture growth emphasizes the importance of retaining both clusters of basic residues, at the termini of the 33-mer, for the antimicrobial functionality of polypeptides derived from the N-terminal LF sequence.
Time course of E. coli growth in the presence of LF polypeptides. E. coli cells, clinical isolate strain 0111, were obtained from ATCC. […] Culture growth was monitored spectrophotometrically by measuring optical density at 600 nm at each indicated time point.

[2] = tested on: Lipid A; assay: Limulus ELISA, ENC50 against Lipid A; format: biochemical, E. coli K12; conditions: endotoxin 200 EU/ml; mean +/− SD
Description: (§1) The peptide-mediated inhibition of endotoxin-induced Limulus amebocyte lysate (LAL) coagulation was measured with a sensitive LAL assay (Zhang et al., J. Clin. Microbiol. 32: 416-422 (1994)). Limulus ELISA is an endotoxin assay based on activation of the LAL coagulation by endotoxin and detection of the generated peptide-C immunoreactivity with an ELISA using a monoclonal antibody to the polypeptide. Endotoxin was defined to be neutralized when it lost its ability to activate the LAL enzymes. The 50% endotoxin-neutralizing concentration (ENC50) reflects the potency of an anti-endotoxin agent; a low ENC50 indicates high potency. Table 2 lists the determined ENC50 value of each anti-endotoxin agent against lipid A and four different types of LPS. […]
(§2) LPS. […] The potency of the above endotoxin was determined with the Limulus enzyme-linked immunosorbent assay (ELISA, 43) in comparison with US Pharmacopeia reference standard endotoxin EC-5.
(§3) Briefly, 25 μl endotoxin solution (200 EU/ml) was mixed with an equal volume of test materials in a series of two-fold dilution in 0.15 M NaCl in a sterile 96-well tissue culture plate (Nunc A/S, Roskilde, Denmark), and incubated at 37° C. for 1 h in a dry-air incubator. […] The endotoxin activity was then quantified with the use of Limulus ELISA (Zhang et al., J. Clin. Microbiol. 32: 416-422 (1994)). […]

[3] = tested on: E. coli LPS; assay: Limulus ELISA, ENC50 against E. coli LPS; format: biochemical, Escherichia coli O113:H10; conditions: endotoxin 200 EU/ml; mean +/− SD
Description: as §1, §2, §3

[4] = tested on: N. min. LPS; assay: Limulus ELISA, ENC50 against N. min. LPS; format: biochemical, Neisseria meningitidis; conditions: endotoxin 200 EU/ml; mean +/− SD
Description: as §1, §2, §3

[5] = tested on: lipid A from E. coli 0113; assay: LAL assay, neutralization of lipid A endotoxin activity (FIG. 6); format: biochemical; conditions: lipid A 30 ng/ml
Description: The lipid A region of the LPS molecule is primarily responsible for the inflammatory and toxic effects of LPS. When LPS is released from the microbe, the lipid A portion may become more accessible. The following assays were performed to determine the potential of various amino-terminal LF polypeptides to neutralize the endotoxic activity of the lipid A portion of LPS. LF, the 6 kDa fragment of LF, LF-33, LF-27, and polymyxin B were each tested for the ability to neutralize the endotoxin activity of lipid A from E. coli 0113 (30 ng/ml), using a LAL assay. […] The endotoxin activity of the smaller fragments of LF indicate that endotoxin-neutralizing activity of these small polypeptides is masked when in the context of the intact LF molecule.

[6] = tested on: E. coli LPS; assay: Galactosamine-sensitized mouse model, LPS lethality and serum TNF-α; format: in vivo, NIH/Swiss mice; conditions: for Lethality (dead/total): 72 h
[7] = tested on: E. coli 0111; assay: Potentiation of Rifampicin by LF polypeptides; conditions: 5 μM polypeptide + 0.9 μg/ml rifampicin, 6 hr
[8] = LPS 125 ng i.p. + 20 μg LF-33 i.v. 10 min after LPS

CSCC[C@H](NC(=O)[C@H](CC(N)=O)NC(=O)[C@H](CCCNC(=N)N)NC(=O)[C@H](CCC(N)=O)NC(=O)[C@H](Cc1c[nH]c2ccccc12)NC(=O)[C@H](CCC(N)=O)NC(=O)[C@H](Cc1ccccc1)NC(=O)[C@H](CS)NC(=O)[C@H](CCCCN)NC(=O)[C@@H](NC(=O)[C@H](C)NC(=O)[C@H](CCC(=O)O)NC(=O)[C@@H]1CCCN1C(=O)[C@H](CCC(N)=O)NC(=O)[C@H](CO)NC(=O)[C@@H](NC(=O)[C@H](C)NC(=O)[C@H](CS)NC(=O)[C@H](Cc1c[nH]c2ccccc12)NC(=O)[C@H](CCC(N)=O)NC(=O)[C@@H](NC(=O)[C@H](CO)NC(=O)[C@H](CCCNC(=N)N)NC(=O)[C@H](CCCNC(=N)N)NC(=O)[C@H](CCCNC(=N)N)NC(=O)[C@H](CCCNC(=N)N)NC(=O)CN)C(C)C)C(C)C)[C@@H](C)O)C(=O)N[C@@H](CCCNC(=N)N)C(=O)N[C@@H](CCCCN)C(=O)N[C@H](C(=O)N[C@@H](CCCNC(=N)N)C(=O)NCC(=O)N1CCC[C@H]1C(=O)O)C(C)C [LF-33] (H-GRRRRSVQWCAVSQPEATKCFQWQRNMRKVRGP-OH) was tested, and the “growth of E. coli 0111 cultures” value [1] was “completely suppressed the growth”, the pIC50 [2] was 7.00 and the pIC50 [3] was 6.28. The pIC50 [4] was 5.51, the “lipid A neutralizing activity” value [5] was “neutralized lipid A” and the lethality ([6]; 2.5 μg per animal injected simultaneously with endotoxin, 93% without LF-33) was 6%. For the same compound, the “Serum TNF-α level” value [6, 8] was 4,611 +/− 1,897 pg/ml, the “Lethality (dead/total)” value [6, 8] was 5/5 and the “Lethality (dead/total)” value ([6]; LPS 125 ng i.p. + 100 μg LF-33 i.v. 10 min after LPS) was 3/15**. The “Lethality (dead/total)” value ([6]; LPS 125 ng mixed with 2.5 μg LF-33, i.p., LPS alone 14/15) was 1/15** and the “effect on the antimicrobial activity of rifampicin (viable bacteria)” value [7] was “potentiated the antibiotic”.
